This is one part of the list. Most entries show no effect beyond the scatter of the controls.

The chains behind the UniProt entries cited, without tags or fusion partners. Where a name states a change or a piece, a line headed by the entry shows the natural chain unless it says otherwise.
UniProt Q2EES0: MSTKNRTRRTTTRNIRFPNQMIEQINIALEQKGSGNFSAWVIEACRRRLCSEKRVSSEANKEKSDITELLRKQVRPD
UniProt Q47013: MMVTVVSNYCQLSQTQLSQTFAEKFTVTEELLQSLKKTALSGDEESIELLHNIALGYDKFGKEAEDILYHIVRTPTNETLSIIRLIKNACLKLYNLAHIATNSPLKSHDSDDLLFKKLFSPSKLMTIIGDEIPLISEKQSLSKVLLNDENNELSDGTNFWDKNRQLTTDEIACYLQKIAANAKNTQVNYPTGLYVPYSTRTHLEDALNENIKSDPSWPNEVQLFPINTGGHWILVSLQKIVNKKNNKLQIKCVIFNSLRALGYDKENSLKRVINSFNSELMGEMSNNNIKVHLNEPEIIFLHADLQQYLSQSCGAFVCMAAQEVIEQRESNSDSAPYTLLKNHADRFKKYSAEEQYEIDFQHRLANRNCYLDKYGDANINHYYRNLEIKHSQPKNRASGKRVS
UniProt Q47688: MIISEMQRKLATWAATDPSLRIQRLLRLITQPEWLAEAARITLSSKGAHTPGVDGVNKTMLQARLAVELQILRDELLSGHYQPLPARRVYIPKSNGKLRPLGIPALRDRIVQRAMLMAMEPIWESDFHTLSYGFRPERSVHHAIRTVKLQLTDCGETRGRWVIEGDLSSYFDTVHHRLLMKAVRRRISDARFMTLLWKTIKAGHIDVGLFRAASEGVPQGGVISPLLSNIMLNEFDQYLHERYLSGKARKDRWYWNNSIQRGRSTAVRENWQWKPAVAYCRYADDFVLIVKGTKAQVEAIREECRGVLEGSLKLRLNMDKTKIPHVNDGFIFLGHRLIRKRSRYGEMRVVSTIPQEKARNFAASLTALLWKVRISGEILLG
UniProt Q46927: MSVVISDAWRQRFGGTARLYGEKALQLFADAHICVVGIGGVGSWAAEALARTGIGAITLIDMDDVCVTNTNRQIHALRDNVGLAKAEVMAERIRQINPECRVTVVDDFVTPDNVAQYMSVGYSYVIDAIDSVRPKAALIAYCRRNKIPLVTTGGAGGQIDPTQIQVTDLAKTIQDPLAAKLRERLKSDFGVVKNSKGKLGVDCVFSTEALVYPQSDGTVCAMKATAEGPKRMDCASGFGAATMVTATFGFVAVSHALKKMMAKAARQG
UniProt Q46901: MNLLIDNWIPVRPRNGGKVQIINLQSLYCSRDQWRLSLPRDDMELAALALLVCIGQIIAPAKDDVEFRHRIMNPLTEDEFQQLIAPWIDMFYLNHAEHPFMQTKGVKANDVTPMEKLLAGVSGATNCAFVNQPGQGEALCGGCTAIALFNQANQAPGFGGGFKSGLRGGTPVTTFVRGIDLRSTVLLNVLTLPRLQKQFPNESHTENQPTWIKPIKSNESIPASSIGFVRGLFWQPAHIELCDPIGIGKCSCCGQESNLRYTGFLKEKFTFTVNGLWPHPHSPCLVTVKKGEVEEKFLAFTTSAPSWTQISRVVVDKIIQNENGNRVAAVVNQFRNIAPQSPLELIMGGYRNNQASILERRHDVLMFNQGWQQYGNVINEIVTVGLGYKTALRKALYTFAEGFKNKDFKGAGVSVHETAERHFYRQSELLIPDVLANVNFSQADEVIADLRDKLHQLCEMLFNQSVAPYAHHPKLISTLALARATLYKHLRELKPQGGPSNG
UniProt Q47083: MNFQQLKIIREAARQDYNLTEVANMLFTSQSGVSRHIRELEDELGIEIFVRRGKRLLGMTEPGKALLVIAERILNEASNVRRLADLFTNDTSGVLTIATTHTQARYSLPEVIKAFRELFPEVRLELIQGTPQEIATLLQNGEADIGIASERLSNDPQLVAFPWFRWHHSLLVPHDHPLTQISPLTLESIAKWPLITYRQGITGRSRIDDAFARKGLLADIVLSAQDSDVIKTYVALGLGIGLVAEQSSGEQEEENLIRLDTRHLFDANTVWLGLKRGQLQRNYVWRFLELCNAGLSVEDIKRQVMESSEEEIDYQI
UniProt Q46851: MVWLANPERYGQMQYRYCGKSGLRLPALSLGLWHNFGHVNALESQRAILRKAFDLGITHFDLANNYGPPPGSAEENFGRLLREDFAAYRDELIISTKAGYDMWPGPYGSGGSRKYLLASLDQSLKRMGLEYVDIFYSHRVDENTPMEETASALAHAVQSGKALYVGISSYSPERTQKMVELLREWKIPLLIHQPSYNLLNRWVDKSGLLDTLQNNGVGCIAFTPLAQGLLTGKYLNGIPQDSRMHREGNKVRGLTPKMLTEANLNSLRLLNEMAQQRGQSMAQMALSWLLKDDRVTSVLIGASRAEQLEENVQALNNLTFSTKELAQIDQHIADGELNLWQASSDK
UniProt Q46810: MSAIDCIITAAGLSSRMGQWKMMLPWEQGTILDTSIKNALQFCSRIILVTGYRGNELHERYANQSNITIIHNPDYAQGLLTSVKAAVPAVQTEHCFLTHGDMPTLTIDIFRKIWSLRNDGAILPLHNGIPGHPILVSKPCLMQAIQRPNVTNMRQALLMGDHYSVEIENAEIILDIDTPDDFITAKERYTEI
UniProt Q46939: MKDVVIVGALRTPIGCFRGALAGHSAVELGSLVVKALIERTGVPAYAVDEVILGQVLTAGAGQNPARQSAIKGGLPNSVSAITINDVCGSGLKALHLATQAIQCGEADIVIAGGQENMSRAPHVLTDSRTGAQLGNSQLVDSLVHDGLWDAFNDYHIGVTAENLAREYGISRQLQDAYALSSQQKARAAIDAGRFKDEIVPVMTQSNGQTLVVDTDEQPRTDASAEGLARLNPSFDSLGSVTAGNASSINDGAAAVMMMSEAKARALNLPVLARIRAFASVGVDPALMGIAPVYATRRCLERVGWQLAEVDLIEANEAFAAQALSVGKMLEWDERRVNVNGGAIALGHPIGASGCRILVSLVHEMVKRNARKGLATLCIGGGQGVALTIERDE
UniProt Q47702: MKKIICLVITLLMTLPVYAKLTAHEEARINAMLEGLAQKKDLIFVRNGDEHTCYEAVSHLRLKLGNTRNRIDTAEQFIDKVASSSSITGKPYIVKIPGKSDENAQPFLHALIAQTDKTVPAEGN
UniProt Q46889: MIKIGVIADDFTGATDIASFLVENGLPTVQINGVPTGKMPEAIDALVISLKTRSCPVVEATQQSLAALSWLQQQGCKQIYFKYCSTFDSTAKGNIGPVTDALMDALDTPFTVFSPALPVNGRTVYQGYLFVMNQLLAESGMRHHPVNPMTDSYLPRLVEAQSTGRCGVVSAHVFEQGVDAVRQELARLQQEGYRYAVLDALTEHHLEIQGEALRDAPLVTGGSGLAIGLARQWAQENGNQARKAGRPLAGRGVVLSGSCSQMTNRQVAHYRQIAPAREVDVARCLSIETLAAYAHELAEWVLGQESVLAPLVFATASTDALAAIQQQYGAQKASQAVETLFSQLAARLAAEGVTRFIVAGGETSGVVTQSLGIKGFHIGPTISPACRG
UniProt Q46907: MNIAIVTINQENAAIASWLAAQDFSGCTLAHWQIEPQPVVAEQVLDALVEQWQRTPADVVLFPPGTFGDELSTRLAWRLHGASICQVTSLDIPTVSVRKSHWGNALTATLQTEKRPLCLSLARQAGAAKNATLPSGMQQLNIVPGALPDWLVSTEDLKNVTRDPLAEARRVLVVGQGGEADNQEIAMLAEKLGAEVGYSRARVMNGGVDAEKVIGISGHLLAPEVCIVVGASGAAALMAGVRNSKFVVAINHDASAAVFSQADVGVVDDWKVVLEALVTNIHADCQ
UniProt Q46864: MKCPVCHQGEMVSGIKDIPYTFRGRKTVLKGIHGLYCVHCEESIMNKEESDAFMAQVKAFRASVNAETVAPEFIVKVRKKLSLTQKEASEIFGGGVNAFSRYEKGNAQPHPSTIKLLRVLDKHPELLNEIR
UniProt Q46911: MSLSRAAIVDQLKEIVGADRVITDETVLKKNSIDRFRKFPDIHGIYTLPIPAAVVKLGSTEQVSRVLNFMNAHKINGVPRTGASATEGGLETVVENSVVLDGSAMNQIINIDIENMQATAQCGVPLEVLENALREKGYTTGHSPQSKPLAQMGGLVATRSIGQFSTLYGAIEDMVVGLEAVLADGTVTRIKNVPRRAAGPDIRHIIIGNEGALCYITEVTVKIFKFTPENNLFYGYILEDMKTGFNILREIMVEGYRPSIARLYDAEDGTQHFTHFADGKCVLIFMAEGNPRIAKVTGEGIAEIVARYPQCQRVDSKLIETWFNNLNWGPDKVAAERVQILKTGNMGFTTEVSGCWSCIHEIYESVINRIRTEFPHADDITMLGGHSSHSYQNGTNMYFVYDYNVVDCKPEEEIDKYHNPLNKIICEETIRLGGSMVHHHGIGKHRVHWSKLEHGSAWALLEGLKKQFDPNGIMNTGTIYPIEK
UniProt P77781: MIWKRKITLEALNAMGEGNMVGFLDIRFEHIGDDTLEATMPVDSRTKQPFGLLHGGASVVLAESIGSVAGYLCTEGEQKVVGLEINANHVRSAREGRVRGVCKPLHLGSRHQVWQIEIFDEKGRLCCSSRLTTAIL
UniProt Q47152: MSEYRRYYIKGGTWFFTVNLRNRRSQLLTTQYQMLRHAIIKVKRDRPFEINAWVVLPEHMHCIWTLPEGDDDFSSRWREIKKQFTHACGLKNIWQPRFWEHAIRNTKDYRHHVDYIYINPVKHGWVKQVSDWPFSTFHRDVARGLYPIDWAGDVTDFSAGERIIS
UniProt P77774, whole entry: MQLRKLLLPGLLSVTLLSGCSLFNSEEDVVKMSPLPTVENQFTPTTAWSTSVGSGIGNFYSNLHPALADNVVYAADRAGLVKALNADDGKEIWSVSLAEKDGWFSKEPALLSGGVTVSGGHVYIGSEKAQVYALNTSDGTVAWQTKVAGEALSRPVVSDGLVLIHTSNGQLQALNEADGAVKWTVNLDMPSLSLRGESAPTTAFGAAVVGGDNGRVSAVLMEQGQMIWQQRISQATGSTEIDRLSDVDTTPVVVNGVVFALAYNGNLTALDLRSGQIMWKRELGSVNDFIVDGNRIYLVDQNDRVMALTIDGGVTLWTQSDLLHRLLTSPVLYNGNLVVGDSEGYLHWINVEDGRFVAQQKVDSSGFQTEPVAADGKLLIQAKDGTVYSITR
UniProt Q46899: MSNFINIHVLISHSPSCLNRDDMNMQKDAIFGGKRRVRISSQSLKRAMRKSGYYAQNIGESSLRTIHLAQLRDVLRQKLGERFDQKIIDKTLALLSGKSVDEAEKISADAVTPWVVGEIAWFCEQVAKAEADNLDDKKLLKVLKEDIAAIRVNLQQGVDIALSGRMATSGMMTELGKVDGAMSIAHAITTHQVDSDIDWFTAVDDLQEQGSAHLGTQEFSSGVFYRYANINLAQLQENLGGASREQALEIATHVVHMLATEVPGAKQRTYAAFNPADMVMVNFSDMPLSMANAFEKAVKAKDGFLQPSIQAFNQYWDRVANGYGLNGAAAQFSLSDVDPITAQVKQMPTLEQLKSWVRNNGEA
UniProt P77730: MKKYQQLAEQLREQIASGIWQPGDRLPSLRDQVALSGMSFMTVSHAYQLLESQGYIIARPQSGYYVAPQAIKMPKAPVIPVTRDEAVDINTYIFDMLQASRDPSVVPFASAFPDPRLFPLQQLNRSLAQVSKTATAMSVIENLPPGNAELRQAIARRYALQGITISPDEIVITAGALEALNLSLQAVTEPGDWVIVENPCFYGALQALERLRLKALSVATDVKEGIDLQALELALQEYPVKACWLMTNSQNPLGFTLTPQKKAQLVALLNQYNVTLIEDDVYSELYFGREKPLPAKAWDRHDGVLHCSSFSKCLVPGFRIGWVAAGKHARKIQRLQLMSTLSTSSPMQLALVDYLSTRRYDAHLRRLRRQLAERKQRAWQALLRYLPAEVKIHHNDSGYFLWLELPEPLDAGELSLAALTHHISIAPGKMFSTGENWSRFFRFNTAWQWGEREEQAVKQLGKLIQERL
UniProt Q46866: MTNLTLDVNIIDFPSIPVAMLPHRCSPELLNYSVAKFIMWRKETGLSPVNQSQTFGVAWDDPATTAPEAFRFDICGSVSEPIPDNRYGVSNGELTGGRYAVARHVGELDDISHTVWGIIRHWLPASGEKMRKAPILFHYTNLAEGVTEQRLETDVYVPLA
UniProt Q46800: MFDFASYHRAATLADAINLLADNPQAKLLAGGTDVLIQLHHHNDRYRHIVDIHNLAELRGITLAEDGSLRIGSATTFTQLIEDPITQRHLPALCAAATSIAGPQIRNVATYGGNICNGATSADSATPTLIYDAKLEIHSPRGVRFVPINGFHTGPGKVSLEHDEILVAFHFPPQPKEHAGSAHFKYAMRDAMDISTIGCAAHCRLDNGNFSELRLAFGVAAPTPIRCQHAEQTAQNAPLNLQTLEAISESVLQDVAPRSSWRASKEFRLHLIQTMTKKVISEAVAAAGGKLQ
UniProt Q46857: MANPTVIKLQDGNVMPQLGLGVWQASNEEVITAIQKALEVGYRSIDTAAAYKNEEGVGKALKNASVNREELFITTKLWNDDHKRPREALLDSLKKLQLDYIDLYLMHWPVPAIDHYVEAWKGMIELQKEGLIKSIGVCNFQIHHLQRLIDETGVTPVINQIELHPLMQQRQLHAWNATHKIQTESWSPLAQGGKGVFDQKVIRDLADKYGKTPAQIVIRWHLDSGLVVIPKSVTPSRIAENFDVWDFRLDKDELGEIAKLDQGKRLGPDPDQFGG

Compound in this assay: CC1(C)S[C@@H]2[C@H](NC(=O)[C@H](N)c3ccccc3)C(=O)N2[C@H]1C(=O)O [ampicillin]
In words: log2 fold change of tryptic peptide abundance, ligand vs vehicle (limited proteolysis) (log2 ratio); higher = more trypsin-susceptible (destabilized). Particulars: ligand concentration: 10 uM; sample: E. coli crude lysate.
“UniProt Q2EES0 (peptide sequence: SDITELLR, peptide start residue: 64)”: the log2 fold change was -0.251.

In the case of “UniProt Q47013 (peptide sequence: SHDSDDLLFKK, peptide start residue: 107)”, the log2 fold change was -0.495.

With “UniProt Q47688 (peptide sequence: LATWAATDPSLR, peptide start residue: 10)”, the log2 fold change came out at 0.136.

As to “UniProt Q46927 (peptide sequence: IRQINPECR, peptide start residue: 93)”, the log2 fold change was -0.451.

Turning to “UniProt Q46901 (peptide sequence: IIQNENGNR, peptide start residue: 318)”, the log2 fold change is -0.675.

Regarding “UniProt Q47083 (peptide sequence: ALLVIAER, peptide start residue: 65)”, the log2 fold change is -0.171.

“UniProt Q46851 (peptide sequence: KYLLASLDQSLKR, peptide start residue: 114)”: the log2 fold change was found to be 0.376.

Consider “UniProt Q46810 (peptide sequence: NALQFCSR, peptide start residue: 38)”, for which the log2 fold change was -0.0394.

Take “UniProt Q46939 (peptide sequence: DVVIVGALR, peptide start residue: 3)”: the log2 fold change was -0.303.

With “UniProt Q46799 (peptide sequence: DLAMDAFYHPER, peptide start residue: 575)”, the log2 fold change is -0.33.

On to “UniProt Q47702 (peptide sequence: NGDEHTCYEAVSHLR, peptide start residue: 47)”, for which the log2 fold change stood at 0.0542.

On to “UniProt Q46889 (peptide sequence: HHPVNPMTDSYLPR, peptide start residue: 143)”, for which the log2 fold change was -0.391.

As to “UniProt Q46907 (peptide sequence: LGAEVGYSR, peptide start residue: 192)”, the log2 fold change is -0.631.

With “UniProt Q46864 (peptide sequence: CPVCHQGEMVSGIKDIPYTFR, peptide start residue: 3)”, the log2 fold change was -0.269.

With “UniProt Q46911 (peptide sequence: GYTTGHSPQSKPLAQMGGLVATR, peptide start residue: 137)”, the log2 fold change was found to be 0.325.

In the case of “UniProt P77781 (peptide sequence: FEHIGDDTLEATMPVDSR, peptide start residue: 28)”, the log2 fold change stood at 0.479.

Turning to “UniProt Q47152 (peptide sequence: HHVDYIYINPVK, peptide start residue: 111)”, the log2 fold change amounted to 0.186.

Consider “UniProt P77774 (peptide sequence: RELGSVNDFIVDGNR, peptide start residue: 281)”, for which the log2 fold change was -0.995.

Regarding “UniProt Q46899 (peptide sequence: TIHLAQLR, peptide start residue: 65)”, the log2 fold change was -0.0682.

For “UniProt P77730 (peptide sequence: LFPLQQLNR, peptide start residue: 117)”, the log2 fold change was -0.139.

With “UniProt Q46866 (peptide sequence: YGVSNGELTGGR, peptide start residue: 87)”, the log2 fold change was -0.158.

On to “UniProt Q46800 (peptide sequence: DAMDISTIGCAAHCR, peptide start residue: 190)”, for which the log2 fold change was -0.457.

Take “UniProt Q46857 (peptide sequence: QLHAWNATHK, peptide start residue: 171)”: the log2 fold change is -0.21.

These data come from the supplement of paper PMC12819154, “High-throughput peptide-centric local stability assay extends protein–ligand identification to membrane proteins, tissues and bacteria” (Nature Structural & Molecular Biology, 2025).
